The record followed here is patent US20120301476A1.

Test [1] concerns the target dog CAPRIN-1 in dog breast cancer tissue (dog). As to the kind of experiment: immunohistochemical staining of frozen dog breast cancer tissue sections.
The target of test [2] is T1, polypeptide of SEQ ID NO: 37 (CAPRIN-1 partial sequence) (human).
T1 sequence (peptide): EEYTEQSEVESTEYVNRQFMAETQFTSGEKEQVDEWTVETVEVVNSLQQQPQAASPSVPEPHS
As to the kind of experiment: ELISA on immobilised synthetic peptides. For orientation: ELISA stands for enzyme-linked immunosorbent assay.

These are yes or no findings as the source states them, for the method shown. Some results given as binding are weak or reduced against the parent protein; the word gives no strength.

B1: anti-CAPRIN-1 mouse monoclonal antibody #5 (antibody, V domains shown)
VH: GAELVRSGASVKMSCKASGYSFTDYNMYWVKQTPGQGLEWIGYIYPGNGGTNYNQKFKGKATLTADTSSSTAYMQISSLTSEDSAVYFCARDYDDGGYAMDYWGQGTTVTVSS
VL: DIQMTQSPASLSASVGETVTITCRASGNIHNYLTWYQQKQGKSPQLLVYNAKTLADGVPSRFSGSGSGTQYSLKINRLQPEDFGSYYCQHFWNIPWTFGGGTKLNSR
Consider B1, for which the binding result in test [1] and in test [2] was “binds” in each case.

B2: anti-CAPRIN-1 mouse monoclonal antibody #6 (antibody, V domains shown)
VH: DAELVKPGASVKISCKASGYTFTDHSIHWVQQKPEQGLEWIGYISPGNGNIKYNEKFKGKATLTADKSSSTAYMQLNSLTSEDSAVYFCKRSLGRGGPYYFDYWGQGTTVTVSS
VL: DIVLTQAAPSLPVTPGESVSISCRSSKSLLHSNGNTYLYWFLQRPGQSPQLLIYRMSNLASGVPDRFSGSGSGTAFTLRISRVEAEDVGVYYCMQHREYPVTFGSGPN
With B2, the binding result in test [1] and in test [2] was “binds” each time.

B3: human-chicken chimeric antibody #1 having the chicken monoclonal antibody #1 variable region (antibody, V domains shown, not shown: a dimerising Fc or GST; large carriers)
VH: AVTLDESGGGLQMSRGGLSLVCKASGFDFSSYQMNWIRQAPGKGLEFVAAINKFGNSTGHGAAVKGRVTISRDNGQSTVRLQLNNLRAEDTAIYFCTKHAYGYCGSGTWCAAGEIDAWGHGTEVIVSS
VL: QAASTQPSSVSANPGETVEITCSGGGSYSYGWFQQKSPGSAPVTVIYYNNKRPSDIPSRFSGSKSGSTGTLTITGVQADDEAVYYCGSGDSTDTAVFGAGTTLTVLG
Take B3: the binding result in test [1] and in test [2] was “binds” each time.
